{"source": "PubChem BioAssay AID1224830, NIAID – 2016", "screen": "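Regulators of TLR4 signalling towards TNF-alpha in macrophage-like cells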 (primary screen)", "cells": "human THP-1 monocytic leukaemia cells, TNF dual-luciferase reporter clone, PMA-differentiated to macrophage-like cells", "reagents": "siRNA pool against human genes, 50 nM", "time to read-out": "LPS for 4 h, given about 3 days after siRNA transfection", "treatment": "bacterial LPS (TLR4 ligand), 10 ng/ml", "measurement": "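Ratio of firefly to renilla light, scaled to the plate median and expressed as a robust z-score per replicate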", "direction": "TNF reporter robust z-score: higher = stronger TNF reporter response to LPS", "hit rule": "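Each well counts as active if its z-score is over 2.8 or under -1.5; controls are left without a call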", "note": "The whole screen tested about 18,000 reagents; this is a part drawn at random. About 2,900 of all reagents (16%) count as active. 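Calls are made per well; low scores hint the gene aids the LPS response, high scores that it dampens it.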 Repeated entries: four replicate wells of each siRNA pool. Reagent sequences are not shown."}
{"gene symbol": "CLEC4M", "TNF reporter robust z-score": 1.63, "outcome": "inactive"}
{"gene symbol": "CLEC4M", "TNF reporter robust z-score": 2.28, "outcome": "inactive"}
{"gene symbol": "CLEC4M", "TNF reporter robust z-score": 1.74, "outcome": "inactive"}
{"gene symbol": "CLEC4M", "TNF reporter robust z-score": 1.21, "outcome": "inactive"}
{"gene symbol": "SEC11C", "TNF reporter robust z-score": -0.84, "outcome": "inactive"}
{"gene symbol": "SEC11C", "TNF reporter robust z-score": -0.59, "outcome": "inactive"}
{"gene symbol": "SEC11C", "TNF reporter robust z-score": 1.75, "outcome": "inactive"}
{"gene symbol": "SEC11C", "TNF reporter robust z-score": -1.36, "outcome": "inactive"}
{"gene symbol": "CLPB", "TNF reporter robust z-score": -0.51, "outcome": "inactive"}
{"gene symbol": "CLPB", "TNF reporter robust z-score": -0.94, "outcome": "inactive"}
{"gene symbol": "CLPB", "TNF reporter robust z-score": -1.21, "outcome": "inactive"}
{"gene symbol": "CLPB", "TNF reporter robust z-score": -0.47, "outcome": "inactive"}

Ordered by “TNF reporter robust z-score” (high to low): some entries from above.
{"gene symbol": "CLPB", "TNF reporter robust z-score": -0.51, "outcome": "inactive"}
{"gene symbol": "CLPB", "TNF reporter robust z-score": -0.94, "outcome": "inactive"}

More results:
{"gene symbol": "DYNLRB1", "TNF reporter robust z-score": 1.34, "outcome": "inactive"}
{"gene symbol": "DYNLRB1", "TNF reporter robust z-score": 2.17, "outcome": "inactive"}
{"gene symbol": "DYNLRB1", "TNF reporter robust z-score": 1.64, "outcome": "inactive"}
{"gene symbol": "DYNLRB1", "TNF reporter robust z-score": 1.75, "outcome": "inactive"}
{"gene symbol": "GRM3", "TNF reporter robust z-score": 2.97, "outcome": "active"}
{"gene symbol": "GRM3", "TNF reporter robust z-score": -0.58, "outcome": "inactive"}
{"gene symbol": "GRM3", "TNF reporter robust z-score": 1.34, "outcome": "inactive"}
{"gene symbol": "GRM3", "TNF reporter robust z-score": 3.14, "outcome": "active"}
